Experimental data reported in the supplement of paper PMC6078165.
The reference is the same well before dosing, and untreated signal decays as well.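 Labels refer to human fibroblasts, largely primary: uterine (C12385, HUF), lung (H6013), bone (Hs27A), adrenal (HADF), skin (WS1), plus mammary HMF and breast cancer-associated Hs343T. Cancer lines are basal-like or mesenchymal-like triple-negative breast cancer. The paper counts as hits responses shifting over 3x the replicate standard deviation. The tissue of the other fibroblasts is not given here.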

Test system: MDAMB436
Experiment: relative JC-1 red fluorescence (viability) vs pre-drug, coculture with fibroblast (fraction); higher = more viable cancer cells
Conditions: 1 µM
Protocol: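 JC-1 labelled TNBC cells cocultured 1:1 (1,500 cells each) with CellTrace Violet stained primary or stromal fibroblasts in 384-well plates in FluoroBrite medium, treated with one of 42 anticancer drugs at 0.1, 1, 10 or 100 uM. JC-1 red fluorescence (mitochondrial integrity in cancer cells only) was read by plate reader every 8 h for 72 h. Values are normalised to each well's pre-drug value. The stock of one drug was tenfold lower, so its dose labels may be too high.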

CO[C@H]1C[C@@H]2CC[C@@H](C)[C@@](O)(O2)C(=O)C(=O)N2CCCC[C@H]2C(=O)O[C@H]([C@H](C)C[C@@H]2CC[C@@H](OCCO)[C@H](OC)C2)CC(=O)[C@H](C)/C=C(\C)[C@@H](O)[C@@H](OC)C(=O)[C@H](C)C[C@H](C)/C=C/C=C/C=C/1C [Everolimus]
relative JC-1 red fluorescence
Conditions | 8 h | 16 h | 24 h | 32 h | 40 h | 48 h | 56 h | 64 h | 72 h
coculture fibroblast: C12385 | 0.8397 | 0.78 | 0.7123 | 0.6377 | 0.592 | 0.572 | 0.548 | 0.524 | 0.519
coculture fibroblast: H6013 | 0.838 | 0.772 | 0.748 | 0.744 | 0.728 | 0.751 | 0.727 | 0.719 | 0.689
coculture fibroblast: H6019 | 0.77 | 0.713 | 0.6919 | 0.615 | 0.5751 | 0.5551 | 0.5226 | 0.492 | 0.466
coculture fibroblast: H6076 | 0.7725 | 0.68 | 0.6708 | 0.6436 | 0.6258 | 0.6053 | 0.62269 | 0.6222 | 0.6239
coculture fibroblast: H6231 | 0.7487 | 0.679 | 0.658 | 0.6108 | 0.573 | 0.5421 | 0.5295 | 0.5012 | 0.486
coculture fibroblast: HADF | 0.88 | 0.836 | 0.778 | 0.758 | 0.725 | 0.734 | 0.685 | 0.664 | 0.6159
coculture fibroblast: HCFa | 0.829 | 0.767 | 0.737 | 0.712 | 0.678 | 0.7 | 0.638 | 0.635 | 0.579
coculture fibroblast: HCPF | 0.79 | 0.736 | 0.711 | 0.67 | 0.644 | 0.612 | 0.588 | 0.571 | 0.556
coculture fibroblast: HHSteC | 0.863 | 0.829 | 0.7883 | 0.774 | 0.759 | 0.774 | 0.716 | 0.696 | 0.648
coculture fibroblast: HMF | 0.77 | 0.695 | 0.652 | 0.612 | 0.59 | 0.56 | 0.563 | 0.546 | 0.539
coculture fibroblast: HPFa | 0.818 | 0.796 | 0.947 | 0.837 | 0.83 | 0.942 | 0.832 | 0.947 | 0.904
coculture fibroblast: HUF | 0.8426 | 0.7442 | 0.71 | 0.634 | 0.5755 | 0.5475 | 0.513 | 0.501 | 0.487
coculture fibroblast: Hs5 | 0.832 | 0.764 | 0.788 | 0.739 | 0.737 | 0.703 | 0.718 | 0.692 | 0.688
coculture fibroblast: Hs27A | 0.795 | 0.746 | 0.729 | 0.724 | 0.704 | 0.761 | 0.7 | 0.694 | 0.639
coculture fibroblast: Hs343T | 0.7856 | 0.719 | 0.67 | 0.639 | 0.608 | 0.577 | 0.573 | 0.555 | 0.545
coculture fibroblast: WS1 | 0.821 | 0.736 | 0.696 | 0.615 | 0.572 | 0.555 | 0.529 | 0.505 | 0.496
